According to the supplement of paper PMC3334620:
The full ranking holds about 33,000 sequences; the median of “E-score (-0.5 to 0.5)” is about -0.0014, and the highest 2% start at about 0.25. The list shows a part of the results.

biological target: T1, Cad1 (UniProt P24813); assay: PBM E-score (8-mer binding enrichment) (E-score (-0.5 to 0.5)); higher = stronger / more preferred TF binding; details: protein concentration: 100 nM; construct: GST-full length
T1 sequence: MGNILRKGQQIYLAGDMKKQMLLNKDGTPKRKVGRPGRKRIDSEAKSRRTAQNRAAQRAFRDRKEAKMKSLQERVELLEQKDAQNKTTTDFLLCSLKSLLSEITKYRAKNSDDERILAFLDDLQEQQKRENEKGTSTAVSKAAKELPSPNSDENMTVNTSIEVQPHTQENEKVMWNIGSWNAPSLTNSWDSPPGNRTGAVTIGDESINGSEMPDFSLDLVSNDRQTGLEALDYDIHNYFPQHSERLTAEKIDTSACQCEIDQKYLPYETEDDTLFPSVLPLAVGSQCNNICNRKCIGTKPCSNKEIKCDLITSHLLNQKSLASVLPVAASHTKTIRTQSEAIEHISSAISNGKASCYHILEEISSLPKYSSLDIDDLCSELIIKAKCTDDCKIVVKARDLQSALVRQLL
Experimental: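 Universal 'all 10-mer' protein binding microarrays (Agilent AMADID 015681) probed with GST-tagged S. cerevisiae TFs (full-length or DBD) made by in vitro transcription/translation (PURExpress), about 100-200 nM. Bound TF was detected with fluorescent anti-GST. Each ungapped 8-mer (which stands for itself and its reverse complement) is scored by the PBM enrichment score (E-score), a modified Wilcoxon-Mann-Whitney statistic from -0.5 to +0.5, computed with the Universal PBM Analysis Suite. Scale: above 0.35 generally sequence-specific binding.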

Sequence	PBM E-score
ACTTAGAT	0.223
GGACATAC	-0.0127
CTTCCAAA	0.0591
CGGAGCTC	-0.169
GAAGATCC	-0.12
CCCGCGAA	0.11
ATCGTAAG	-0.0168
ACTGCCGC	0.0883
AGTAAAAC	0.0871
CGTGCATC	-0.081
CATAGAAC	-0.0836
AGATAACA	0.121
GTGCTCTA	-0.119
CAGCTAGA	-0.0654
AACGTTTG	0.0251
TCAGCCGA	0.0312
ACCCATAG	-0.265
AAGACCTC	-0.216
CTCAAGGA	0.00237
AAGCGCTG	0.212
ATATAAGA	0.22
ACCCGTTA	-0.0468
AAATAAGA	0.0927
GCAGGACA	0.128
CCTCGCTA	-0.238

Sequence	PBM E-score
CTGTTACA	0.00341
CAAGGAAC	0.0717
AGGCCAAA	0.0775
CTGTCGAA	-0.00556
CAATGCTA	0.036
CGTTTGCA	0.104
CCGCTCGC	-0.176
AGCTAACG	0.00297
AGTGATAA	0.0537
AAGATTCG	0.172
GCTTAAGA	0.0319
AAAGCAAG	0.0883
GATCACAC	-0.0166
CGGTTCCA	0.085
GCTGTCAC	-0.0985
AGGGTTTC	-0.074
CCCGGAGG	-0.36
CACTCTAG	-0.0635
CCTTATTC	-0.103
ACAACGTA	-0.0654
ACACCGCC	0.0284
AGAACGGG	-0.166
CTGAAAAA	0.0585
AAATCAAT	0.109
CGGCCCCG	-0.177

Sequence	PBM E-score
AGGGTTAC	-0.133
AGTCCAGG	-0.16
AACAAGAT	0.126
CAACCGCG	0.297
CGATGCAC	-0.0939
CTATCTAA	0.00628
GCAGGCAA	0.131
AACCATGC	0.176
AGTTAAAC	0.0883
ACGGCCAG	0.0397
AAAGTCAA	-0.0656
TAAATGAA	-0.0294
GGCCCAAC	0.0185
GCTCTGAC	-0.0426
CCGGAACA	0.108
ACCACATG	0.183
CTGCCAAC	-0.0116
ACTTAGGC	-0.0295
ACCCCGTC	-0.254
GCGCTCAA	0.125
CACCCTAA	0.0895
ACAGTTCA	0.115
GGATGGAC	-0.051
CATTCTGA	0.0397
GAACGATC	0.0052

Sequence	PBM E-score
TCACTGGA	-0.0472
CCTCCCGA	-0.191
CTACCCGC	-0.0849
GTCTGTAA	0.0181
ATCACTGC	0.0917
CGCCTCCA	-0.04
CAAACATC	0.0154
AACGCGCC	-0.0193
AAATAGTT	0.129
ACAGGTAC	-0.213
TATCAGGA	0.116
GCGGACGC	-0.00201
CCCATTGC	-0.105
CTCGACTC	0.002
ATGGTAAG	-0.124
GAAATTCC	0.0725
ACCTACAA	0.17
AGACCTGC	-0.191
AAGACTTA	-0.0766
AACCGAAA	0.164
AGTCTGCC	-0.0107
CCCCCAGC	-0.368
CATACCGA	-0.1
GGTCCCAA	-0.116
CGACTGGA	-0.0784

Four consecutive records from above, for reference:
Sequence	PBM E-score
AAGACTTA	-0.0766
AACCGAAA	0.164
AGTCTGCC	-0.0107
CCCCCAGC	-0.368

Continued.

Sequence	PBM E-score
GGCCTTAA	0.128
TCTGCCAA	-0.131
AAGCAGGA	0.0169
CCATATGG	0.207
CTGAGTCA	0.149
AACCAAGT	0.0561
ATGTGACC	0.0156
ATGAGAGA	0.0852
TACCGGTA	0.0874
GGGCTGTA	-0.205
AGACGATA	0.213
AATGCGGA	0.148
ACCTAGTA	-0.271
AAGATAAG	0.062
CACGGCGG	-0.0994
CTATACGA	-0.0469
ACCTATCA	-0.0641
ATATGCTC	-0.115
ATACGCAT	0.0481
TTCTGCAA	0.0661
AAGGCCCA	-0.195
AGATCGTG	-0.0814
CACGCATG	0.0109
CCTGGTCA	-0.174
AATCATCT	-0.0851

Sequence	PBM E-score
TGCCTACA	-0.0776
ACTAGGGG	-0.2
AATGTAAA	0.193
GTGGTTAA	0.0523
GCGGGGAC	-0.0472
CGTCGTGC	-0.00422
AGGTATAA	-0.0139
CCGGAATA	0.0963
GTTAAGCA	-0.101
GCAGACAC	0.168
ATCAAATG	0.149
GTTAGCTA	-0.0351
CGGCATGC	0.193
AGAATGCA	0.129
AGCTAGAT	0.121
ATAGGAGA	-0.222
GGCCGTAA	0.00336
TAGGTTCA	0.00473
CCCCTTGA	-0.109
ATCCACAC	-0.072
TACTTCCA	0.0837
CGTCGGTC	-0.0905
AAGTGTCG	0.159
GATGATCA	0.102
GCCATACA	0.075

Sequence	PBM E-score
ACTAATCG	0.356
CGCGCTAG	0.238
GAGCACGA	0.0497
ATCTGGGG	-0.274
CGTAAGAC	0.0326
AAAGCCCT	-0.134
GCGTCCCA	-0.0154
TAGTATAA	0.0547
AACCTCCG	-0.101
TGAAACAA	0.0338
TACGCAGA	0.119
ATCCATGC	0.0144
CCAACGTA	-0.0803
CCCTGAGA	-0.152
CGAGGCCC	-0.0676
GGACAACC	0.0243
CTAACGAC	0.0416
ACTGTGCC	0.0125
AAGATCCG	-0.185
GGTTTAGA	-0.0592
ATAGGGTC	-0.177
AGGTAGAC	-0.113
CGAAAGCA	-0.0657
GACTTCTC	0.0745
CATTGTCA	0.167

Sequence	PBM E-score
TGCACCCA	-0.0054
CCAACCCC	-0.104
ACCATTAC	0.026
CAACGTGG	0.088
ATTCACTA	0.173
TATATCGA	0.154
GAGCGGAC	-0.284
CTCGCGTA	0.0816
GATGTGGC	-0.171
GTGTACCA	-0.0325
CCAGGACC	-0.136
AGGGATGA	0.07
CAGAATTA	0.0723
CAGTGGCA	-0.241
GTTCCATA	0.0772
ACAAATGT	0.0516
CAGCAAGG	-0.251
GAGGAAGA	-0.164
AAATTTCC	0.124
AGTAGGAT	-0.0755
ATACTAGA	0.0384
TTCCAAAA	-0.036
AACGACTG	-0.0363
CGCGGGTA	0.0697
AGCTGCAT	-0.128

Sequence	PBM E-score
CACCTACG	-0.0725
ATGAGTTA	0.0121
AACACTAG	0.11
ACGTGTAT	0.0878
ATACGGCA	0.201
ATCCTCTG	-0.105
AATTGCAT	0.0616
CTAGATAA	0.029
CCGCGCTA	0.263
ATATCAAT	0.253
ACATCTGA	-0.302
CGAAGTAA	-0.0088
GCGATACA	0.106
ATGGCCCC	-0.356
ATTAAATC	0.231
ATTGATTA	0.286
GTATAATA	0.283
ACGTCGCC	-0.129
GTCCTAAA	0.111
ACCGGGGG	-0.428
GTGAGTAA	0.129
CGTGTTAC	0.12
AGGGCATA	-0.0152
TACAGGCA	-0.0526
GTGTACAC	0.217

Sequence	PBM E-score
CCTGTCTC	-0.202
AAGTGCAC	0.15
AATAATAC	0.205
CAATGTAG	-0.042
GACGTAGA	-0.227
AGGTCACC	-0.225
AGCCAGAG	-0.124
AGATCATG	-0.0578
ACGCCGGG	-0.167
ACCCAGCT	-0.184
AGTCATGA	0.16
CTCCGTAC	-0.0404
CGATAAAG	0.0305
ACACGCTA	-0.056
GCGACTTA	-0.04
ATGGTAGG	-0.112
ATTGTGCC	-0.175
AGTGGTAG	0.00926
CAAAGTCG	-0.00415
GCGCGAAC	-0.0187
CTTAGGGC	-0.0822
CAGTACGA	0.0748
CTAGATTA	0.226
ACCGAAAC	0.0463
TCCAACGA	-0.0591

Sequence	PBM E-score
TAGTTCGA	0.0531
AACGGGAT	-0.113
CTACGCCC	-0.203
CTATAAAC	0.0193
CGTTTTAC	-0.0161
CCACCAGG	-0.221
AGTAGGGC	0.0572
ACCCTTTG	-0.247
ATTTGACG	0.156
GAACCCAA	0.00927
ATCAGATG	-0.109
GCAACTCC	-0.137
CCTCCCTC	-0.0476
CGTGATAC	-0.0812
AATGCGGC	0.114
GGATCTCA	-0.182
GTATGGGA	-0.253
ACACTCGC	0.123
CGCTAAGC	0.058
AGTCATTA	-0.0112
AGGACTGA	-0.114
ACAGAGAC	-0.106
GAGTTGGA	-0.0262
GACATCCA	-0.0881
GCCAATCA	-0.0666

Sequence	PBM E-score
GAGGCAGC	-0.0807
CGGTGGTA	-0.0272
GTAGGTCA	-0.155
ACCTGCAC	-0.139
CATATCGC	0.0925
GGGGGAAC	-0.314
AAACCACG	-0.101
CCCGAGAC	-0.0512
GAAATTGC	0.0698
GGTTACAC	-0.073
CTGGAGGA	-0.121
CTTGAATC	-0.017
CCGACGAG	-0.0724
CGGGGCAG	-0.102
CAAGATCC	0.0341
TCATAGCA	-0.00424
GAGAACTA	0.103
CACCCAAG	-0.094
CGTGCTGA	0.222
AGCCTTAC	-0.167
TACCCCCA	-0.289
CAGCATCC	-0.185
GATCCTGA	0.034
CCGAGGGC	-0.00227
AACCTAGG	-0.0383

6 entries from above, reformatted.

| Sequence | PBM E-score |
| --- | --- |
| GTAGGTCA | -0.155 |
| ACCTGCAC | -0.139 |
| CCCGAGAC | -0.0512 |
| CTTGAATC | -0.017 |
| TCATAGCA | -0.00424 |
| CCGAGGGC | -0.00227 |

(listing goes on)

Sequence	PBM E-score
GCCGGGAA	-0.144
AAACGACG	0.113
AATAGTGT	0.128
ACAAAACG	0.0535
CGGTCACA	0.00337
GAGGTAGC	-0.166
AGCAGACC	0.0505
AAGTCGTG	0.0348
GACTAACA	0.218
CCTCTGTA	-0.153
ACCGGTCC	-0.312
CCAGCAAG	-0.167
GCCAACAA	-0.0504
GGAGGGGA	-0.0377
CCTATGCC	-0.218
CACGGCCA	-0.0897
TGCGGTAA	0.141
CTGAGTCC	0.0301
AGATGTGG	-0.133
AGCATGAC	0.027
CTTGTCAC	-0.0806
CGTGGGTA	-0.149
GAAAGGGC	-0.112
AAGACAAG	0.0865
AATCGATC	0.215

Sequence	PBM E-score
GCAAGTAC	-0.0548
GCAAGGCC	0.0338
CGCTAACG	0.233
TTCTCCAA	-0.122
CCGAGCGC	0.19
AATTGTTC	0.212
TAGTCTAA	-0.103
ATATCCAA	0.184
CCTAAACA	-0.141
ACACGTAA	-0.0157
CTACTACC	-0.0481
TGCCTTAA	-0.0884
GGTTAAAA	0.00126
CTCACGCC	-0.0984
GTACAGAA	0.066
GTGATGTA	0.0906
GGGAGACC	-0.355
AACCCGCC	0.0998
ATATAGGG	-0.132
